Experimental data taken from article PMC12627471.
Results are given in words; binding and its absence hold for the method and conditions named. Binding seen in cells or lysates may run through a third protein. These calls come from enrichment with a bait or labelling near it, and not all partners need be listed.

Amino acid sequences for entries named in this document (tags omitted).
UniProt P14618: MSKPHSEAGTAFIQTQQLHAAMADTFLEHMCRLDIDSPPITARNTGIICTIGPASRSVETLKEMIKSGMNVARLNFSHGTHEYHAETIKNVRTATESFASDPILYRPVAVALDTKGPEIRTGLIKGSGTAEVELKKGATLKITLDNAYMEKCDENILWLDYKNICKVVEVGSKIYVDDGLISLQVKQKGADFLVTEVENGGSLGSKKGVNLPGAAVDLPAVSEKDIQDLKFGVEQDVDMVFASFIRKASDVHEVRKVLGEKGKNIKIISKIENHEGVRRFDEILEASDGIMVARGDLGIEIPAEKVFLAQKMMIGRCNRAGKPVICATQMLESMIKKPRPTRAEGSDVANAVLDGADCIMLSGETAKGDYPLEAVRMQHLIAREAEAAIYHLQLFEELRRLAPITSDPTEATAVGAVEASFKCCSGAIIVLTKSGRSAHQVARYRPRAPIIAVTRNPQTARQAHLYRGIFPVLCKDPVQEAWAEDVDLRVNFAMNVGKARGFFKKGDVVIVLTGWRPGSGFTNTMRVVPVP

Molecular target: T1, Transketolase (TKT) (human) (UniProt P29401)
T1 sequence: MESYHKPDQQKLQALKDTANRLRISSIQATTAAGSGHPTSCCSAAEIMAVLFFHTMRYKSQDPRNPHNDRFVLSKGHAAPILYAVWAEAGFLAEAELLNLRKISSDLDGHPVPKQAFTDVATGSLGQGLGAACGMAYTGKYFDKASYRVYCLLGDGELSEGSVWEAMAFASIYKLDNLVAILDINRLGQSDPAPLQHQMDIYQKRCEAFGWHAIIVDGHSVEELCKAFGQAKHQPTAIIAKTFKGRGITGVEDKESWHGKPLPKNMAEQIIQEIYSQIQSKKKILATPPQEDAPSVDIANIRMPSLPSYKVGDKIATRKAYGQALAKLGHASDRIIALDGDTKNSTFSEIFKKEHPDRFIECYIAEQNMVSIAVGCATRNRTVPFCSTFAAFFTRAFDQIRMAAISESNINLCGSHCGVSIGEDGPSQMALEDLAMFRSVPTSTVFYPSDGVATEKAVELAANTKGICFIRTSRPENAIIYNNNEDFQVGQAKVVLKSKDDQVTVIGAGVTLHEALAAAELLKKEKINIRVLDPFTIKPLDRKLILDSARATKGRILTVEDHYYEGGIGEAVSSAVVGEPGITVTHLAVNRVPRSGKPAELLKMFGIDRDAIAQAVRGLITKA
Assay: affinity purification with mass spectrometry; immunoprecipitation-mass spectrometry of TKT-binding proteins in RCC cells; cell line and antibody not stated

Pyruvate kinase M2 (PKM2) (from UniProt P14618 1-531) (enzyme)
binding: binds
